# In PubChem BioAssay AID2551 (National Center for Advancing Translational Sciences (NCATS), 2010):
# The chains behind the UniProt entries cited, without tags or fusion partners. Where a name states a change or a piece, a line headed by the entry shows the natural chain unless it says otherwise.
# UniProt P51450: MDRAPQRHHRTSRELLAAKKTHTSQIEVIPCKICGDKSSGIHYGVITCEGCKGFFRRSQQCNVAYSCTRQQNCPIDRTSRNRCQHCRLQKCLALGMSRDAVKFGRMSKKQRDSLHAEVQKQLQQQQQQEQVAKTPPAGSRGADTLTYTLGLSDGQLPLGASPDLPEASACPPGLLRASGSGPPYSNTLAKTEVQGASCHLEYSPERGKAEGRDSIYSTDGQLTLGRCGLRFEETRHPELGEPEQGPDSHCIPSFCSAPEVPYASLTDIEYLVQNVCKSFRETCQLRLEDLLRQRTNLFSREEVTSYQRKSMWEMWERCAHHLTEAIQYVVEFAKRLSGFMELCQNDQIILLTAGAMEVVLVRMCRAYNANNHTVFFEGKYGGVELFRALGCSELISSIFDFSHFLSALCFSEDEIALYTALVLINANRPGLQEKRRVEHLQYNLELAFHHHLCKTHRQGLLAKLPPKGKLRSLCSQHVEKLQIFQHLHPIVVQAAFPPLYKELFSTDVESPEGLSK
# The campaign covered roughly 310,000 compounds. About 17,000 (5.5%) were called active. The shares of active, inactive and inconclusive entries below differ from those in the screen. Calls follow the shape of the dose curve; as a rule, active = well fitted inhibition curve with a large enough effect; inconclusive = small, poorly fitted or top-dose-only effect, or effect the other way; inactive = no such curve, though single readings can be large or run the other way. Where the call is inconclusive, the potency comes from a doubtful curve fit.
# Target: Nuclear receptor ROR-gamma (Mus musculus) (UniProt P51450)
# Assay: qHTS for inhibitors of ROR gamma transcriptional activity; also: nearly all actives have a fitted effect of over 60% in size
# Conditions: Drosophila S2 Gal4-RORgamma UAS-luciferase reporter, 20 h; activity change, negative = inhibition: at 53.6 µM (top of the series)
# How it was run: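 Read-out: Photinus luciferase luminescence; inhibitors lower reporter signal. Insect Schneider cells with Gal4-ROR gamma fusion under metallothionein promoter, UAS reporter; 700 uM final copper sulfate induction, 20 hr, ambient temperature.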
# % is scaled to controls: 0 for no effect and ±100 for the full control effect; potency is read from the fitted curve at half-maximal effect.
Structure (SMILES),"activity change, negative = inhibition",Potency
CCOC(=O)c1oc2ccccc2c1NC(=O)C1CCCCC1,inactive: -2.66%,–
Cc1cc(NC(=O)/C=C/c2cccc(Cl)c2)n(-c2nc3ccccc3[nH]2)n1,–,"inconclusive: 15.8 µM [inhibitor, single point]"
CCN(CC(=O)NCCc1ccccc1)S(=O)(=O)c1ccc(Br)cc1,–,"inconclusive: 5.01 µM [inhibitor, single point]"
Cc1ccc(Sc2ncnc3onc(C)c23)c(C)c1,–,"inconclusive: 35.5 µM [inhibitor, single point]"
CCN(CC)CCn1c(-c2ccc(C)cc2)nc(=S)c2c1CC(C)(C)OC2,–,"inconclusive: 20 µM [inhibitor, partial curve, poor fit]"
O=C(NC(=S)NCCc1ccccc1)C1CCCCC1,–,active: 2.82 µM
O=C(Nc1ccc(-c2nc3ccccc3o2)cc1)c1cc(-n2cnnc2)ccc1Cl,–,"inconclusive: 22.4 µM [activator, partial curve]"
COc1cc(/C=N/Nc2nc3ccccc3[nH]2)cc(OC)c1O,–,"inconclusive: 22.4 µM [inhibitor, single point]"
Cc1ccc([N+](=O)[O-])cc1S(=O)(=O)Nc1ccc(O)c(Sc2ncn[nH]2)c1,inactive: 1.33%,–
CCOC(=O)C1=C(CCl)NC(=O)NC1c1ccc2c(c1)OCO2 (stereo unspecified),–,"inconclusive: 20 µM [inhibitor, single point]"
COc1ccc(C(=O)Nc2ccc(Cl)c(S(=O)(=O)Nc3ccccc3OC)c2)cc1,inactive: 6.33%,–
CCc1n[nH]c(=S)n1/N=C/c1cccc2ccccc12,–,active: 7.08 µM
O=C(N/N=C/c1ccc[nH]1)c1ccccc1[N+](=O)[O-],–,"inconclusive: 15.8 µM [inhibitor, single point]"
COc1ccc(CC(=O)Nc2cc(Cl)ccc2N2CCCC2)cc1,–,"inconclusive: 15.8 µM [activator, single point]"
C=CCn1c(-c2csc(-c3ccc(OC)c(OC)c3)n2)n[nH]c1=S,–,active: 2 µM
CCCC(C(=O)NC1CCCC1)N(C(=O)Cn1nnc(-c2ccc(C)o2)n1)c1cccc(O)c1 (stereo unspecified),–,"inconclusive: 22.4 µM [inhibitor, single point]"
Cc1nc(Nc2ccccc2)sc1C(=O)c1ccc(F)cc1,–,"inconclusive: 7.94 µM [inhibitor, single point]"
CCOC(=O)c1c(C)[nH]c(C)c1C(=O)CSc1nc2ccccc2c(=O)n1-c1ccc(Cl)cc1,–,"inconclusive: 11.2 µM [activator, partial curve]"
COc1cc2c(cc1OC)-c1cc(Nc3ccc4c(c3)OCCO4)nc(=O)n1CC2,–,"inconclusive: 1.41 µM [inhibitor, partial curve]"
Cc1cc(=O)oc2cc(NC(=S)NCc3cccnc3)ccc12,–,"inconclusive: 17.8 µM [activator, single point]"
O=C(NC(=S)NCc1ccccc1)c1ccccc1,–,active: 3.16 µM
O=C1NC(=S)S/C1=C\c1ccc(SCc2ccco2)o1,inactive: -19.8%,–
CCc1c(O)c(/C(C)=N\O)c(=O)n(-c2ccccc2)c1-c1ccccc1,–,"inconclusive: 35.5 µM [inhibitor, single point]"

Structure (SMILES),"activity change, negative = inhibition",Potency
CCOC(=O)c1c(NC(=O)COc2ncnc3ccccc23)sc(C(C)=O)c1C,–,"inconclusive: 1.26 µM [activator, full curve, poor fit]"
CCN(CC(=O)Nc1cccc(C(C)=O)c1)S(=O)(=O)c1ccc(C)cc1,–,"inconclusive: 11.2 µM [activator, partial curve]"
Cc1ccc(N(C)C(=O)CN(C)S(=O)(=O)c2ccc3c(c2)n(C)c(=O)c(=O)n3C)cc1,inactive: -7.12%,–
O=C(O)c1cc(S(=O)(=O)NC(CO)C(O)c2ccc([N+](=O)[O-])cc2)ccc1Br (stereo unspecified),inactive: -17.8%,–
COc1ccccc1CNC(=O)C(Cc1c[nH]c2ccccc12)NC(=O)OCc1ccccc1 (stereo unspecified),inactive: 33.9%,–
COc1ccc(NC(=O)N2CCCC2C(=O)NCc2ccccc2Cl)cc1 (stereo unspecified),–,"inconclusive: 0.158 µM [inhibitor, full curve, poor fit]"
O=C(NNC1CC(=O)N(c2ccccc2)C1=O)c1ccc(COc2ccccc2Cl)o1 (stereo unspecified),–,"inconclusive: 31.6 µM [activator, single point]"
COC(=O)c1ccc(NC(=S)NCc2ccco2)cc1,–,"inconclusive: 22.4 µM [inhibitor, single point]"
CC(=O)c1ccc(NC(=O)COC(=O)c2ccccc2Sc2ccccc2C#N)cc1,–,"inconclusive: 2.24 µM [activator, full curve, poor fit]"
CSc1cccc(NC(=S)N(Cc2ccc(C)cc2)Cc2ccccn2)c1,–,active: 12.6 µM
COc1ccccc1C(=O)Nc1nnc(S(=O)(=O)N2CCN(c3ccc(F)cc3)CC2)s1,inactive: 2.06%,–
O=C(OCn1ncc(Br)c(Br)c1=O)c1ccc(F)cc1,–,"inconclusive: 28.2 µM [inhibitor, single point]"
C[n+]1c2n(c3ccccc31)N=C(c1ccccc1)CS2,–,inactive
Cc1ccc(N(C)C(=O)c2ccc3c(Cl)c4c(nc3c2)CCC4)cc1C,–,"inconclusive: 22.4 µM [activator, single point]"
C=CCc1cccc(CNc2nc3ccccc3n2C(C)C)c1O,–,"inconclusive: 17.8 µM [activator, partial curve, poor fit]"
COc1cc(CNCc2ccccn2)ccc1OCc1cccc(Cl)c1,–,active: 3.98 µM
OCc1nc2ccccc2n1CC(O)Cn1ccc2ccccc21 (stereo unspecified),–,"inconclusive: 15.8 µM [inhibitor, single point]"
Cn1c(=O)c(-c2ccc(F)cc2)nc2cnc(OCc3ccccc3)nc21,inactive: -1.9%,–
N#Cc1cc(-c2ccccc2)nc(N2CCNCC2)n1,–,"inconclusive: 0.631 µM [inhibitor, full curve]"
NNc1ccc2c(C(F)(F)F)cc(C(F)(F)F)nc2n1,–,active: 12.6 µM
Cc1ccc(C(=O)NCC(=O)OCC(=O)Nc2ncc(C(F)(F)F)cc2Cl)cc1,inactive: 7.88%,–
Cc1ccc(NC(=O)NCc2cccn2C)cc1C,inactive: 16.6%,–
Cc1nnc(-c2ccc(Oc3ccc(Br)cc3)c([N+](=O)[O-])c2)o1,–,"inconclusive: 12.6 µM [activator, single point]"

# Some values from above.
# Potency, `N#Cc1cc(-c2ccccc2)nc(N2CCNCC2)n1` reads inconclusive: 0.631 µM [inhibitor, full curve]
# Potency, `CCOC(=O)c1c(NC(=O)COc2ncnc3ccccc23)sc(C(C)=O)c1C` reads inconclusive: 1.26 µM [activator, full curve, poor fit]
# Potency, `COC(=O)c1ccc(NC(=S)NCc2ccco2)cc1` reads inconclusive: 22.4 µM [inhibitor, single point]
# Potency, `C[n+]1c2n(c3ccccc31)N=C(c1ccccc1)CS2` reads inactive
